Patent US20230349919A1
These are yes or no findings as the source states them, for the method shown.

Chains of the proteins cited; added tags and fusions are not shown. Lines headed by an entry give the natural chain unless they say otherwise; changes in a name come on top.
UniProt P30438: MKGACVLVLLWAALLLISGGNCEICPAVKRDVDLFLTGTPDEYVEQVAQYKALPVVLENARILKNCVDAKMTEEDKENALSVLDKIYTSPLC
UniProt P30440: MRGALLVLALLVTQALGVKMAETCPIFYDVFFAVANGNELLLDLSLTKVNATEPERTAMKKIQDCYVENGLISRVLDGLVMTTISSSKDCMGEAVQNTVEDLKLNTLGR

Experiments:
[1] = biological target: T1, Fel d1 (cat) (UniProt P30438+P30440); experiment: Fel d1 ELISA, single condition against blank
[2] = biological target: T1, Fel d1 (cat); experiment: ELISA

B1: IgE mAb 12_2 (antibody, V domains shown)
VH: QAYLQQSGAELVRPGASVKMSCKASGYTFISYNMHWVKQTRRQGLEWIGAIYPGNGDTSYNQKFKGKATLTVDKSSSTAYMQLSSLTSEDSAVYFCARWDYYGSSYGAYWGQGTLVTVSA
VL: DIQMTQSPASLSVSVGETVTITCRASENIYSNLAWYQQKQGKSPQLLVYAATNLADGVPSRFSGSGSGTQYSLKINSLQSEDFGSYYCQHFWGTPWTFGGGTKLEIK
**Q.** Which results are given for B1?
**A.** binding [1]: no binding (tested: not shown on the sheet); binding [2]: no binding
